Results taken from the odorant receptor screen of Mainland et al. (2015).
“And” between values parts separate entries of the source, which are not always exact repeats. Identical values can stand only once. This is one part of the list. Single wells; the ratio to wells without odorant was worked out here, and repeats agree poorly.

What was measured:
Assay in all cases: odorant receptor activation (CRE luciferase / Renilla) (fold of no-odor wells); higher = more activation
Conditions in all cases: 100 µM
OR5H6 clone 1470 = tested on: OR5H6 clone 1470
OR5I1 clone 1146 = tested on: OR5I1 clone 1146
OR5J2 clone 1241 = tested on: OR5J2 clone 1241
OR5K1 clone 1502 = tested on: OR5K1 clone 1502
OR5K2 clone 1068 = tested on: OR5K2 clone 1068
OR5K3 clone 1514 = tested on: OR5K3 clone 1514
OR5K4 I206V clone 1729 = tested on: OR5K4 I206V clone 1729
OR5L1 clone 1204 = tested on: OR5L1 clone 1204
OR5L1 clone 1383 = tested on: OR5L1 clone 1383
OR5L1 clone 1720 = tested on: OR5L1 clone 1720

Row | SMILES | odorant receptor activation (OR5H6 clone 1470) | odorant receptor activation (OR5I1 clone 1146) | odorant receptor activation (OR5J2 clone 1241) | odorant receptor activation (OR5K1 clone 1502) | odorant receptor activation (OR5K2 clone 1068) | odorant receptor activation (OR5K3 clone 1514) | odorant receptor activation (OR5K4 I206V clone 1729) | odorant receptor activation (OR5L1 clone 1204) | odorant receptor activation (OR5L1 clone 1383) | odorant receptor activation (OR5L1 clone 1720)
1 | CCOc1cc(C=O)ccc1O [ethyl vanillin] | 1.11 and 2.26 and 1.02 | 1.37 and 1.17 | 0.934 | 1.31 and 2.58 and 1.47 | 1.48 and 1.04 | 1.58 and 1.97 and 1 | 0.492 | 1.6 and 1.09 | 0.926 and 1.34 | 0.573
2 | CS [methanethiol] | 0.673 | 0.83 | 0.841 | 0.933 | 0.995 | 0.747 | 0.826 | 0.998 | 1.08 | 0.613
3 | CCCCOC(C)=O [butyl acetate] | 0.925 | 0.992 | 1.05 | 1.01 | 1.05 | 1.03 | 1.14 | 0.825 | 0.167 | 0.654
4 | CCC(C)=O [2-butanone] | 1.1 | 1.19 | 0.849 | 1.04 | 5.01 | 0.857 | 0.969 | 0.75 | 0.774 | 1.07
